For some assays here: Results from cells or extracts need not show a direct contact. For some assays here: The exact form of at least one protein or probe is not confirmed.
Columns and labels:
[1] = molecular target: T1, L-selectin (LS-Rg) (Homo sapiens) (UniProt P14151); test: filter binding; conditions: purified recombinant protein, protein details: human IgG2 Fc fusion
T1 sequence: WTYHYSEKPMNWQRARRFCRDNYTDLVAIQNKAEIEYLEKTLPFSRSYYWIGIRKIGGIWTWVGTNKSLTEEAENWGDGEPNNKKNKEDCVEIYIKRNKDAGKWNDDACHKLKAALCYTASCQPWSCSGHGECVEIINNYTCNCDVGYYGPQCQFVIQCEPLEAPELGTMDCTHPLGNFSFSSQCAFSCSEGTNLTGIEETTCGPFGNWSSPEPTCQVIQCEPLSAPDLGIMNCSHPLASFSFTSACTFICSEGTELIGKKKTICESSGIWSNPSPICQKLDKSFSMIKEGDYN

[2] = molecular target: T2, E-selectin (ES-Rg) (Homo sapiens) (UniProt P16581); test: filter binding; conditions: 2'-F C and U, purified recombinant protein, protein details: human IgG1 Fc fusion
T2 sequence: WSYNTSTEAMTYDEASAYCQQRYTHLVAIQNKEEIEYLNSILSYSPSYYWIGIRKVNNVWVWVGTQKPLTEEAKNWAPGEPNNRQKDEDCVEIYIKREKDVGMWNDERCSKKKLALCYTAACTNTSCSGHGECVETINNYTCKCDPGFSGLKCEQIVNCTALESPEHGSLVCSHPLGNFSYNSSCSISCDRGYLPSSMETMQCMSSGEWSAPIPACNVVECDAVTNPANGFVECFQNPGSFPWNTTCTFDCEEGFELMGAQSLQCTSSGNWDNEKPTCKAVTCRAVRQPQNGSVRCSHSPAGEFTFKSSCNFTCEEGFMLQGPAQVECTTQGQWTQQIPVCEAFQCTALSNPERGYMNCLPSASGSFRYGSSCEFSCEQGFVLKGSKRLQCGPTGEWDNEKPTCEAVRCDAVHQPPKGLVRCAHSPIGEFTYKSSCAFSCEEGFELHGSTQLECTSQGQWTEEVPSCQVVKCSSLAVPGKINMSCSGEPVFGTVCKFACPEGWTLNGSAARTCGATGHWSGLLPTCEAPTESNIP

[3] = molecular target: T3, P-selectin (PS-Rg) (Homo sapiens) (UniProt P16109); test: filter binding; conditions: 2'-NH2 C and U; probably nM; 37 C; purified recombinant protein; protein details: human IgG Fc fusion
T3 sequence: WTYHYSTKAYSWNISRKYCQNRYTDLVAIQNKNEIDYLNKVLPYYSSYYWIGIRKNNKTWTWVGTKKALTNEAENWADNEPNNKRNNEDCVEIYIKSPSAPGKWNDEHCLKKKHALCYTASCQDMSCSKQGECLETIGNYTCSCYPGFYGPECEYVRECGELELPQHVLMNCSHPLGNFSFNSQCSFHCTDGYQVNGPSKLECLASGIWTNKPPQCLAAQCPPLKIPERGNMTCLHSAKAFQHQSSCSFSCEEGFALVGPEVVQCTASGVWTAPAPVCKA

[4] = molecular target: P-selectin on activated platelets (Homo sapiens) (UniProt P16109); test: flow cytometry; conditions: 2'-NH2 C and U; blocked by G1 antibody, unlabeled PA350, EDTA; protein on the cell surface; label: FITC; variant of PA350
[5] = molecular target: T4, L-selectin on PBMC / lymphocytes (Homo sapiens) (UniProt P14151); test: activity in cells; conditions: protein on the cell surface, single-stranded DNA, dose not given here
T4 sequence: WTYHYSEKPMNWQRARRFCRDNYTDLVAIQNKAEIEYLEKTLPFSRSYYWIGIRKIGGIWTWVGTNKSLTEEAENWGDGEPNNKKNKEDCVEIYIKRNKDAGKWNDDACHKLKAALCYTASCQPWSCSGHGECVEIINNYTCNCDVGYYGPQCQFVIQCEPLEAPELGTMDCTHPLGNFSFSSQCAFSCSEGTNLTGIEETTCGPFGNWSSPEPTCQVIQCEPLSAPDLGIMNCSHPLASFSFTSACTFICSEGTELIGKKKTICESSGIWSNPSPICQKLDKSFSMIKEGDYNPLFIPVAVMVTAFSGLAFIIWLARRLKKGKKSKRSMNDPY

“CUCAACGAACCACGGGGAAAUCCACCAGUAACACGCGAG [PF398s1]” was tested. Which Kd ([1]; 2'-F C and U, variant of PF398) did it give?
The Kd was > 3000 nM.

What about the Kd ([2]; variant of PF398) of the same sequence?
The Kd was > 3000 nM.

Which Kd ([1]; 2'-F C and U, variant of PF373) does the source give for “CUCAACGAAUCAGUAAACAUAACACCAUGAAACAUAAAUAGCACGCGAG [PF373s1]” here?
The Kd was > 3000 nM.

And the Kd ([2]; variant of PF373)?
Its Kd is > 3000 nM.

For “CUCAACGAGCCAGGAACAUCGACGUCAGCAAACGCGAG [PF377M1]”, which Kd ([2]; 2'-OMe G7 G9 G14 G21 A8 A15 A18 A22 A27 A31, variant of PF377s1) is on record?
Its Kd is > 3000 nM.

How did the Kd ([2]; 2'-OMe G 7,9,14,21,36 and A 8,15,18,22,27,31,37 as listed, variant of …) turn out when “CUCAACGAGCCAGGAACAUCGACGUCAGCAAACGCGAG [PF377M3]” was run?
Its Kd is > 3000 nM.

“CUCAACGAGCCAGGAACAUCGACGUCAGCAAACGCGAG [PF377M5]” was tested. Which Kd ([2]; 2'-OMe G 7,9,14 and A 8,15,18,27,31, variant of PF377s1) did it give?
The Kd was > 3000 nM.

Which Kd ([1]; 2'-F C and U, biotin, variant of PF377s1) does the source give for “CUCAACGAGCCAGGAACAUCGACGUCAGCAAACGCGAG [PF377s1B]” here?
Its Kd is > 3000 nM.

What about the Kd ([2]; biotin, variant of PF377s1) of the same sequence?
Its Kd is > 3000 nM.

For “CUCAACGAGCCAGGAACAUCGACGUCAGCAAACGCGAG [PF377s1]”, which Kd ([1]; 2'-F C and U, variant of PF377) is on record?
The Kd was > 3000 nM.

What about the Kd ([2]; variant of PF377) of the same sequence?
Its Kd is > 3000 nM.

With “CUCAACGAGCCAGGACUACGAUCAGCAAACGCGAG [PF377L1]” as the sequence, how does the Kd ([1]; 2'-F C and U, variant of PF377s1) read?
The Kd was > 3000 nM.

And the Kd ([2]; variant of PF377s1)?
Its Kd is > 3000 nM.

Which Kd ([1]; 2'-F C and U, variant of PF422) does the source give for “GAAUCCGGAACACGCGAGAAAACAAAUCAACGACCAAUCGAUUCG [PF422s1]” here?
The Kd was > 3000 nM.

What about the Kd ([2]; variant of PF422) of the same sequence?
The Kd was > 3000 nM.

For “GGGAGACAAGAAUAAACGCUCAACGAAUCAGUAAACAUAACACCAUGAAACAUAAAUAGCACGCGAGACGUCUUCGACAGGAGGCUCACAACAGGC [PF373]”, which Kd ([1]; 2'-F C and U) is on record?
The Kd was > 3000 nM.

What about the Kd [2] of the same sequence?
The Kd was > 3000 nM.

How did the Kd ([1]; 2'-F on all C and U, specificity control, label: 32P) turn out when “GGGAGACAAGAAUAAACGCUCAACGAGCCAGGAACAUCGACGUCAGCAAACGCGAGCGCAACCAGUAACACCUUCGACAGGAGGCUCACAACAGGC [PF377]” was run?
The Kd was > 3000 nM.

Which Kd [3] does the source give for “GGGAGACAAGAAUAAACGCUCAAGAUCAGCGGAACUAAGAAAUGGAAGGCUAAGCACCGGGAUCGGGAGAAUUCGACAGGAGGCUCACAACAGGC [PA309]” here?
The Kd was 0.000656 nM.

Does “GGGAGACAAGAAUAAACGCUCAAGCCCCAAACGCAAGUGAGCAUCCGCAACAGGGAAGAAGACAGACGAUUGAUUCGACAGGAGGCUCACAACAGGC [FITC-PA350]” bind [4]?
Result: binds

With “GGGAGACAAGAAUAAACGCUCAAGCCCCAAACGCAAGUGAGCAUCCGCAACAGGGAAGAAGACAGACGAUUGAUUCGACAGGAGGCUCACAACAGGC [PA350]” as the sequence, how does the Kd ([1]; 2'-NH2 C and U) read?
Its Kd is > 3000 nM.

Which “functional effect of the aptamer” value ([5]; trafficking inhibition similar to NX288, variant of LD174) does the source give for “TAGCCATTCACCATGGCCCCTTCCTACGTATGTTCTGCGGGTGGCTTA [LD174T1]” here?
Its value is “active”.

For “TTAGCCAAGGTAACCAGTACAAGGTGCTAAACGTAATGGCTTCGGCTTACTT [NX288]”, which “functional effect of the aptamer” value ([5]; 5' amino modifier C6 dT with 20 kDa PEG, 3'-3' terminal dT [1 = 5' amino modifier C6 dT with 20 kDa PEG (PEG left out), 52 = 3'-3' terminal dT], inhibits human lymphocyte trafficking to SCID mouse lymph nodes, letters built from the parent sequence and the stated change, variant of LD201T1) is on record?
The value was “active”.

Source: patent US20030059769
